# Measurements as given in PubChem BioAssay AID1347076 (National Center for Advancing Translational Sciences (NCATS), 2019).
# In all, about 400,000 compounds went through this assay and about 13,000 (3.2%) were called active. The shares of active, inactive and inconclusive entries below differ from those in the screen. Calls follow the shape of the dose curve; as a rule, active = well fitted cell-killing curve with a large enough effect; inconclusive = small, poorly fitted or top-dose-only effect, or effect the other way; inactive = flat fitted curve, though single readings scatter. Potencies beside an inconclusive call are fits to weak or partial responses and may not hold up.
# Experiment: qHTS assay for MDR1-selective chemotherapeutics: Primary screen using the drug-selected MDR subline cells KB-V1; also: nearly all actives have a fitted effect of over 60% in size
# Details: KB-V1 MDR cells viability, CellTiter-Glo, 72 h; series mostly up to 46.1 µM
# Method in brief: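 Cytotoxicity via CellTiter-Glo luminescence after 72 h compound exposure at 37 degrees C. Cells: drug-selected KB-V1 line, DMEM phenol-red free plus 10% FBS. Compounds tested at multiple concentrations; normalized data fitted to concentration-effect curves.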
# Potency is read from the fitted curve at half-maximal effect.
row,Compound,Potency
1,CCN(CC(=O)Nc1ccccc1C(F)(F)F)C(=O)CN1C(=O)NC2(CCCC2)C1=O,inactive
2,CC(Sc1ccccc1)C(=O)N/N=C/c1ccccc1 (stereo unspecified),"inconclusive: 0.731 µM [rising, full curve, poor fit]"
3,COc1ccc(C(C)=O)cc1COc1cccnc1[N+](=O)[O-],active: 14.6 µM
4,O=C(c1ccccc1)N(C1=NCCCCS1)c1ccccc1,"inconclusive: 29.1 µM [cytotoxic, single point]"
5,Cc1ccn2cc(-c3cccc(NC(=O)c4ccccc4)c3)nc2c1,"inconclusive: 29.1 µM [cytotoxic, single point]"
6,Cc1ccc(C(=O)Nc2ncc(Cc3ccc(F)cc3)s2)o1,active: 9.2 µM
7,CC(=O)c1ccc(NC(=S)NC(=O)Cc2ccc(Cl)cc2)cc1,"inconclusive: 20.6 µM [rising, partial curve, poor fit]"
8,O=C(Nc1ccc(N2CCOCC2)cc1)c1csc([C@@H]2O[C@H](CO)[C@H](O)[C@H](O)[C@H]2O)n1,inactive
9,CC(NC(=O)c1ccc(S(=O)(=O)NCc2ccco2)cc1)c1ccc(F)cc1 (stereo unspecified),inactive
10,O=S(=O)(Nc1ccc(-c2ccc(N3CCCCC3)nn2)cc1)c1ccc(OC(F)(F)F)cc1,"inconclusive: 20.6 µM [cytotoxic, single point]"
11,Cc1ccc(S(=O)(=O)/N=C2/NC(=O)/C(=C/c3ccc(Br)o3)S2)cc1,"inconclusive: 20.6 µM [cytotoxic, single point]"
12,Cc1csc(NC(=O)Cc2nn(C)c(=O)c3ccccc23)n1,active: 16.4 µM
13,CC(C)(C)c1ccc(/C=C/C(=O)Nc2ccncc2)cc1,"inconclusive: 20.6 µM [cytotoxic, single point]"
14,COc1cccc(CNC(=O)C2CCCN(S(=O)(=O)c3c(C)[nH]c(=O)[nH]c3=O)C2)c1 (stereo unspecified),"inconclusive: 0.0291 µM [rising, full curve]"
15,COc1cc(C(=O)NCc2cccs2)ccc1OCc1c(C)noc1C,inactive
16,CN1/C(=C/C(=O)CSc2ccccc2C(=O)O)C(C)(C)c2ccccc21,"inconclusive: 16.4 µM [rising, single point]"
17,CCOc1ccccc1/C=N/n1c(C2CCCCC2)n[nH]c1=S,inactive
18,CC(Cl)c1cc(-c2ncc(C(F)(F)F)cc2Cl)no1 (stereo unspecified),"inconclusive: 13 µM [rising, partial curve]"
19,Cc1ccc(S(=O)(=O)Nc2ccccc2O)cc1,inactive
20,O=C(/C=C/c1cccc(Cl)c1)N1CCC(Cc2ccccc2)CC1,inactive
21,COc1ccc2c(c1)n([O-])c1c([n+]2=O)CCC1,"inconclusive: 8.2 µM [rising, partial curve, poor fit]"

# Part of the list above, with bars between the fields.
row | Compound | Potency
4 | O=C(c1ccccc1)N(C1=NCCCCS1)c1ccccc1 | inconclusive: 29.1 µM [cytotoxic, single point]
16 | CN1/C(=C/C(=O)CSc2ccccc2C(=O)O)C(C)(C)c2ccccc21 | inconclusive: 16.4 µM [rising, single point]
